# The list does not hold the whole screen: it gathers tests that were run many times, whatever their T/C, doses with no T/C, and many T/C values between a quarter and a half above the control. Further doses and runs are listed elsewhere. T/C: endpoint of the treated group in % of that of the vehicle group. Schedules are NCI's codes, taken here to give the interval after Q, in days (D) or hours (H), and the number of doses after X. Some doses have a count of surviving animals in place of a T/C: the source holds a T/C of zero for them, seemingly a mark for toxic or unscored doses. Some doses without a T/C left all or most animals alive at the check, yet need not have been tolerated: the source hardly ever lists a survival T/C far under the control, and the zero likely stands for such cases as well. Counts of survivors are from the toxicity check (mostly the fifth day) where no day follows; animals may have died later. Some doses were run more than once; their values stand side by side, smallest first.
# Tested on: mice, P1798 lymphosarcoma sc, survival or tumor weight T/C
# Assay: NCI In Vivo Anticancer Drug Screen. Data for tumor model P1798 Lymphosarcoma (subcutaneous) in unknown mice
# Description: The antitumor activity of compounds was measured in mice bearing transplantable tumors. Survival or tumor size were measured and the results are expressed as the measurement made in the treated group (T) divided by the measurement made in the vehicle treated control group (C). The tumor model used in this assay is P1798 Lymphosarcoma (subcutaneous) in unknown mice
smiles,measurement,setting,value
CCCCNc1ncnc2c1cnn2C,T/C,"T/C endpoint: mean tumor weight, dose: 3.12 mg/kg/injection, schedule: Q01DX010 (ip), vehicle: carboxymethylcellulose (CMC), evaluated on day 14, higher T/C = larger tumour",125 % of control
same,survivor count,"T/C endpoint: mean tumor weight, dose: 25.0 mg/kg/injection, schedule: Q01DX010 (ip), vehicle: carboxymethylcellulose (CMC), higher T/C = larger tumour",6 of 10
same,survivor count,"T/C endpoint: mean tumor weight, dose: 50.0 mg/kg/injection, schedule: Q01DX010 (ip), vehicle: carboxymethylcellulose (CMC), higher T/C = larger tumour",2 of 10
same,survivor count,"T/C endpoint: mean tumor weight, dose: 100.0 mg/kg/injection, schedule: Q01DX010 (ip), vehicle: carboxymethylcellulose (CMC), higher T/C = larger tumour",0 of 10
same,survivor count,"T/C endpoint: mean tumor weight, dose: 200.0 mg/kg/injection, schedule: Q01DX010 (ip), vehicle: carboxymethylcellulose (CMC), higher T/C = larger tumour",0 of 10
COc1cccc2c1C(=O)c1c(O)c3c(c(O)c1C2=O)C[C@@](O)(C(=O)CO)C[C@@H]3OC1CC(N)C(O)C(C)O1 (stereo not given in full),survivor count,"T/C endpoint: median survival time, dose: 0.25 mg/kg/injection, schedule: Q01DX010 (ip), vehicle: water, higher T/C = longer survival",10 of 10
same,survivor count,"T/C endpoint: median survival time, dose: 2.0 mg/kg/injection, schedule: Q01DX010 (ip), vehicle: water, higher T/C = longer survival",9 of 10
same,survivor count,"T/C endpoint: median survival time, dose: 4.0 mg/kg/injection, schedule: Q01DX010 (ip), vehicle: water, higher T/C = longer survival",10 of 10
same,survivor count,"T/C endpoint: median survival time, dose: 4.0 mg/kg/injection, schedule: Q04DX007 (ip), vehicle: water, higher T/C = longer survival",10 of 10
same,survivor count,"T/C endpoint: median survival time, dose: 8.0 mg/kg/injection, schedule: Q04DX007 (ip), vehicle: water, higher T/C = longer survival",10 of 10
same,survivor count,"T/C endpoint: median survival time, dose: 16.0 mg/kg/injection, schedule: Q04DX007 (ip), vehicle: water, higher T/C = longer survival",10 of 10
CCOC(N)=O,survivor count,"T/C endpoint: mean tumor weight, dose: 1000.0 mg/kg/injection, schedule: Q01DX010 (ip), vehicle: saline, higher T/C = larger tumour",0 of 10 and 6 of 10
Nc1ncnc2c1ncn2C1OC(CO)CC1O (stereo not given),survivor count,"T/C endpoint: mean tumor weight, dose: 150.0 mg/kg/injection, schedule: Q01DX010 (ip), vehicle: carboxymethylcellulose (CMC), higher T/C = larger tumour",4 of 10
same,survivor count,"T/C endpoint: mean tumor weight, dose: 300.0 mg/kg/injection, schedule: Q01DX010 (ip), vehicle: carboxymethylcellulose (CMC), higher T/C = larger tumour",0 of 10
Cn1c(O)c(N=NC(N)=S)c2ccccc21,survivor count,"T/C endpoint: mean tumor weight, dose: 200.0 mg/kg/injection, schedule: Q01DX011 (ip), vehicle: carboxymethylcellulose (CMC), higher T/C = larger tumour",5 of 10
COC1=C(N)C(=O)c2nc(-c3nc(C(=O)O)c(C)c(-c4ccc(OC)c(OC)c4O)c3N)ccc2C1=O,survivor count,"T/C endpoint: mean tumor weight, dose: 0.06 mg/kg/injection, schedule: Q01DX010 (ip), vehicle: saline, higher T/C = larger tumour",1 of 6
same,survivor count,"T/C endpoint: mean tumor weight, dose: 0.09 mg/kg/injection, schedule: Q01DX010 (ip), vehicle: saline, higher T/C = larger tumour",0 of 6
same,survivor count,"T/C endpoint: mean tumor weight, dose: 0.13 mg/kg/injection, schedule: Q01DX010 (ip), vehicle: saline, higher T/C = larger tumour",0 of 6
same,survivor count,"T/C endpoint: mean tumor weight, dose: 0.2 mg/kg/injection, schedule: Q01DX010 (ip), vehicle: other, higher T/C = larger tumour",0 of 10
same,survivor count,"T/C endpoint: mean tumor weight, dose: 0.2 mg/kg/injection, schedule: Q01DX010 (ip), vehicle: saline, higher T/C = larger tumour",0 of 6
same,survivor count,"T/C endpoint: mean tumor weight, dose: 0.4 mg/kg/injection, schedule: Q01DX010 (ip), vehicle: other, higher T/C = larger tumour",0 of 10
same,survivor count,"T/C endpoint: mean tumor weight, dose: 0.8 mg/kg/injection, schedule: Q01DX010 (ip), vehicle: other, higher T/C = larger tumour",0 of 10
O=C(O)c1ccc(-c2ccccc2)cc1,survivor count,"T/C endpoint: mean tumor weight, dose: 500.0 mg/kg/injection, schedule: Q01DX010 (ip), vehicle: carboxymethylcellulose (CMC), higher T/C = larger tumour",0 of 10
O=C(Nc1ccc(C2=NCCCN2)cc1)c1ccc(NC(=O)c2ccc(C3=NCCCN3)cc2)cc1,survivor count,"T/C endpoint: mean tumor weight, dose: 16.0 mg/kg/injection, schedule: Q01DX010 (ip), vehicle: carboxymethylcellulose (CMC), higher T/C = larger tumour",0 of 10
C1CN1c1nc(N2CC2)nc(N2CC2)n1,survivor count,"T/C endpoint: mean tumor weight, dose: 0.5 mg/kg/injection, schedule: Q01DX010 (ip), vehicle: saline, higher T/C = larger tumour",1 of 10
